Publication PMC6770448
No constants are given. Whether binding was seen depends on the method and setting. For some assays here: Binding seen in cells or lysates may run through a third protein. Some binding calls cover weakened binding; strength is not graded here. Sequences can lack the tags named with a protein. Values belong to the binder of their own block, whether it stands above or below them.

Assays:
[1] = target: T1, TCP13-YFP^C (BiFC) (Arabidopsis thaliana) (UniProt Q9S7W5); test: split reporter; BiFC: TCPs-YFP^C and ATHBs-YFP^N plasmids co-introduced into Arabidopsis protoplasts by the PEG-method; nuclei stained with DAPI; fluorescence observed after 16 h
T1 sequence: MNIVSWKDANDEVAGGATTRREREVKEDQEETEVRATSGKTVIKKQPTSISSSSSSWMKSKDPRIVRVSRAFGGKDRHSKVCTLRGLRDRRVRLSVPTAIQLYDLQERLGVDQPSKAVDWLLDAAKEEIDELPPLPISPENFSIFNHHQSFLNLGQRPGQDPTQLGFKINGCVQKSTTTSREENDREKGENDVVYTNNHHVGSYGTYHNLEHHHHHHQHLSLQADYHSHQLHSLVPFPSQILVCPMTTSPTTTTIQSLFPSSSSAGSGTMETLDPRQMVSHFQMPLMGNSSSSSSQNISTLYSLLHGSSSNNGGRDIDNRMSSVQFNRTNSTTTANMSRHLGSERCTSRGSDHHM

[2] = target: T2, TCP13 fused to BD (yeast two-hybrid) (Arabidopsis thaliana) (UniProt Q9S7W5); test: two-hybrid; Matchmaker two-hybrid system (Takara); TCP-BD and ATHB-AD; dilutions of yeast spotted on medium with or without histidine
T2 sequence: T1 sequence

[3] = target: T3, TCP17 fused to BD (yeast two-hybrid) (Arabidopsis thaliana) (UniProt Q9LEZ9); test: as above
T3 sequence: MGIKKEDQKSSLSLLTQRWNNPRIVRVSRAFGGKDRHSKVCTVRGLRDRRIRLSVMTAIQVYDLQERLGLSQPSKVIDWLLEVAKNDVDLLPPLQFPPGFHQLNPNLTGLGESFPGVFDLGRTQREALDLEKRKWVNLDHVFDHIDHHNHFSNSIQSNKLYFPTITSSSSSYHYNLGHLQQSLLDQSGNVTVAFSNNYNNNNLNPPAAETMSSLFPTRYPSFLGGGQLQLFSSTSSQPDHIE

[4] = target: T4, TCP5 fused to BD (yeast two-hybrid) (Arabidopsis thaliana) (UniProt Q9FME3); test: as above
T4 sequence: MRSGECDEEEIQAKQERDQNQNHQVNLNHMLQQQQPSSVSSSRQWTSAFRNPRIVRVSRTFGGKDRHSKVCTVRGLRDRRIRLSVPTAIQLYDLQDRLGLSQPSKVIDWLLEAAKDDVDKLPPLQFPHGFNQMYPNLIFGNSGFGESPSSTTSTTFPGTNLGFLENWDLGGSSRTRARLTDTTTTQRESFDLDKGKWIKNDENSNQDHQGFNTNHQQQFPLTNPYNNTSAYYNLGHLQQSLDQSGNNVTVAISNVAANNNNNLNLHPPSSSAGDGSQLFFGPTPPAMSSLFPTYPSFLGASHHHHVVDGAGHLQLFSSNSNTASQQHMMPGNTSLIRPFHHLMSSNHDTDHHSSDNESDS

[5] = target: T5, TCP17-YFP^C (BiFC) (Arabidopsis thaliana) (UniProt Q9LEZ9); test: split reporter; BiFC: TCPs-YFP^C and ATHBs-YFP^N plasmids co-introduced into Arabidopsis protoplasts by the PEG-method; nuclei stained with DAPI; fluorescence observed after 16 h
T5 sequence: T3 sequence

[6] = target: T6, TCP5-YFP^C (BiFC) (Arabidopsis thaliana) (UniProt Q9FME3); test: as above
T6 sequence: T4 sequence

B3: ATHB2 (Arabidopsis thaliana homeobox 2) fused to AD (yeast two-hybrid) (protein, UniProt Q05466 1-284)
chain: MMFEKDDLGLSLGLNFPKKQINLKSNPSVSVTPSSSSFGLFRRSSWNESFTSSVPNSDSSQKETRTFIRGIDVNRPPSTAEYGDEDAGVSSPNSTVSSSTGKRSEREEDTDPQGSRGISDDEDGDNSRKKLRLSKDQSAILEETFKDHSTLNPKQKQALAKQLGLRARQVEVWFQNRRARTKLKQTEVDCEFLRRCCENLTEENRRLQKEVTELRALKLSPQFYMHMSPPTTLTMCPSCEHVSVPPPQPQAATSAHHRSLPVNAWAPATRISHGLTFDALRPRS
binding [2]: binds
binding [3]: binds
binding [4]: binds

B4: ATHB2-YFP^N (BiFC) (protein, UniProt Q05466 1-284)
chain: B3 chain
binding [1]: binds
binding [5]: binds
binding [6]: binds

B5: ATHB4-YFP^N (BiFC) (protein, UniProt P92953 1-318)
chain: MGERDDGLGLSLSLGNSQQKEPSLRLNLMPLTTSSSSSSFQHMHNQNNNSHPQKIHNISWTHLFQSSGIKRTTAERNSDAGSFLRGFNVNRAQSSVAVVDLEEEAAVVSSPNSAVSSLSGNKRDLAVARGGDENEAERASCSRGGGSGGSDDEDGGNGDGSRKKLRLSKDQALVLEETFKEHSTLNPKQKLALAKQLNLRARQVEVWFQNRRARTKLKQTEVDCEYLKRCCDNLTEENRRLQKEVSELRALKLSPHLYMHMTPPTTLTMCPSCERVSSSAATVTAAPSTTTTPTVVGRPSPQRLTPWTAISLQQKSGR
binding [1]: binds

B6: ATHB4 fused to AD (yeast two-hybrid) (protein, UniProt P92953 1-318)
chain: B5 chain
binding [2]: binds
binding [3]: binds
binding [4]: binds

More lines, now with the values ahead:

binding [1]: binds
B1: HAT3-YFP^N (BiFC) (protein, UniProt P46602 1-315)
chain: MSERDDGLGLSLSLSLGFNQKDPSSRLNPMPLASYASSSHMQHMQQSNYNHPQKIQNTWINMFQSSERNSDMRSFLRGIDVNRAPSTVVVDVEDEGAGVSSPNSTVSSVMSGKKSERELMAAAGAVGGGRVEDNEIERASCSLGGGSDDEDGSGNGDDSSRKKLRLSKEQALVLEETFKEHSTLNPKQKMALAKQLNLRTRQVEVWFQNRRARTKLKQTEVDCEYLKRCCENLTDENRRLQKEVSELRALKLSPHLYMHMKPPTTLTMCPSCERVAVTSSSSSVAPPVMNSSSPMGPMSPWAAMPLRQRPAAGSH

binding [2]: binds
binding [3]: binds
binding [4]: binds
B2: HAT3 fused to AD (yeast two-hybrid) (protein, UniProt P46602 1-315)
chain: B1 chain
